The values that follow come from US20210299094A1, “METHODS OF UPREGULATING TIPARP AS ANTICANCER STRATEGIES” (CORNELL UNIVERSITY, priority 2018, published 2021).

pIC50: −log10 of the molar value. Where two headings read alike, the source gives them in different places.

One series relates to MCF-7 (ER pos.). The series can be described thus: IC50 in MCF-7 (ER pos.) cell line. The series is classed as cell-based. As to conditions: Homo sapiens, MCF7.
The next series relates to SKBR3 (ER neg.). As to the kind of experiment: IC50 in SKBR3 (ER neg.) cell line. The series is classed as cell-based. As to conditions: Homo sapiens, SK-BR-3.
The test system of series [1] is TiPARP mRNA. As to conditions: human. On the procedure:
(§1) Quantitative Real Time PCR (qRT-PCR)
(§2) Total RNA. was isolated using RNeasy Mini kit (Qiagen) according to the manufacturer's instructions. 0.2 μg sample of total RNA was employed for cDNA synthesis using the Superscript III First-Strand Synthesis kit (Invitrogen) following the manufacturer's instructions. For quantitative real-time PCR analysis, iTaq Universal SYBR Green Supermix (Bio-Rad) was used following the manufacturer's instructions. The reaction was performed with QuantStudio™ 7 Flex Real-Time PCR System (APPLIED BIOSYSTEMS™). In each run, melt curve analysis was performed to ensure the amplification of a single product. The relative expression of each gene, normalized to actin, was calculated using the 2^−ΔΔCt method. The following primers were used for qRT-PCR: VEGF: 5′-[…]-3′ (SEQ ID NO: 24) and 5′-[…]-3′ (SEQ ID NO: 25); GLUT1: 5′-[…] CTAAA-3′ (SEQ ID NO: 26) and 5′˜[…]-3′ (SEQ ID NO: 27); PDK1: 5′-[…]-3′ (SEQ ID NO: 28) and 5′-[…]-3′ (SEQ ID NO: 29); WSBJ: 5′-[…]-3′ (SEQ ID NO: 30) and 5′-[…]-3′ (SEQ ID NO: 31); LDHA: 5′-[…]-3′ (SEQ ID NO: 32) and 5′-[…] CAG-3′ (SEQ ID NO: 33); CXCR4: 5′-[…]-3′ (SEQ ID NO: 34) and 5′-[…]-3′ (SEQ ID NO: 35); TIPARP: 5′-[…]-3′ (SEQ ID NO: 36) and 5′-[…]-3′ (SEQ ID NO: 37), ACTIN: 5′-[…]-3′ (SEQ ID NO: 38) and 5′-[…]-3′ (SEQ ID NO: 39).

The next series has as its system MDA-MB-468 (ER negative). As to the kind of experiment: IC50 in MDA-MB-468 (ER negative) cell line. The series is classed as cell-based. As to conditions: Homo sapiens.
Series [2] concerns TiPARP mRNA. As to conditions: human. On the procedure: as §1, §2
This is another data set of the same source.

A further series has as its system MDA-MB-231 (ER negative). The series can be described thus: IC50 in MDA-MB-231 (ER negative) cell line. The series is classed as cell-based. As to conditions: Homo sapiens.
In a further series the test system is HCT116. As to the kind of experiment: IC50 in HCT116 cell line. As to conditions: Homo sapiens, HCT-116. The series is classed as cell-based.
Series [3] relates to TiPARP mRNA. As to conditions: human. The procedure:
as §1, §2
The source holds these as a separate data set.

The next series has as its system A549. As to the kind of experiment: cells. As to conditions: Homo sapiens, A549, read-out: IC50 value.

With `CC/C(=C(\c1ccccc1)c1ccc(OCCN(C)C)cc1)c1ccccc1` [tamoxifen], the pIC50 in the series on MCF-7 (ER pos.) is 6.06; with SKBR3 (ER neg.), 5.01; in the series with MDA-MB-468 (ER negative), 5.82; with MDA-MB-231 (ER negative) it was 5.66; in the series on HCT116 it was 5.07; in the series on A549, 4.58. Moreover, the “TiPARP mRNA fold induction” value is given as 2.0 fold in the series on TiPARP mRNA [1], 56.0 fold in the series on TiPARP mRNA [2] and 14.5 fold in the series on TiPARP mRNA [3].
